Data on nine substances can be found in patent US20260158153A1 (priority 2021, published 2026).

The data set is described as follows: general procedure: solution-phase peptide synthesis; HATU / diisopropylethylamine. The settings on record: for conjugation yield: conjugation step.

For the substance “(4R,4′R)-5,5′-((((16S,24S,25S,33S)-24,25-bis(2,5-dioxo-2,5-dihydro-1H-pyrrol-1-yl)-4,7,10,15,18,23,26,31,34,39,42,45-dodecaoxo-16,33-bis(31-oxo-2,5,8,11,14,17,20,23,26,29-decaoxa-32-azahexatriacontan-36-yl)-3,6,9,14,17,22,27,32,35,40,43,46-dodecaazaoctatetracontanedioyl)bis(azanediyl))bis(4-hydroxy-3,1-phenylene))bis(4-(2-((3S,6S,9R,11R)-6-((S)-sec-butyl)-3,9-diisopropyl-2,8-dimethyl-4,7-dioxo-12-oxa-2,5,8-triazatridecan-11-yl)thiazole-4-carboxamido)pentanoic acid)”, the conjugation yield is given as 31%. Further, the step yield (coupling step) is listed as 99.94%. For “(11S,19S,20S,28S)-19,20-bis(2,5-dioxo-2,5-dihydro-1H-pyrrol-1-yl)-4,7,10,13,18,21,26,29,32,35-decaoxo-11,28-bis(31-oxo-2,5,8,11,14,17,20,23,26,29-decaoxa-32-azahexatriacontan-36-yl)-3,6,9,12,17,22,27,30,33,36-decaazaoctatriacontanedioic acid”, the step yield (late stage modification step) is given as 71%. On to “(25,2'S,4R,4′R)-5,5′-((((2S,5S,8S,16S,17S,25S,28S,31S)-16,17-bis(2,5-dioxo-2,5-dihydro-1H-pyrrol-1-yl)-5,28-diisopropyl-2,31-dimethyl-4,7,10,15,18,23,26,29-octaoxo-8,25-bis(31-oxo-2,5,8,11,14,17,20,23,26,29-decaoxa-32-azahexatriacontan-36-yl)-3,6,9,14,19,24,27,30-octaazadotriacontanedioyl)bis(azanediyl)) bis(4-hydroxy-3,1-phenylene))bis(4-(2-((6S,9R,11R)-6-((S)-sec-butyl)-9-isopropyl-2,3,3,8-tetramethyl-4,7,13-trioxo-12-oxa-2,5,8-triazatetradecan-11-yl)thiazole-4-carboxamido)-2-methylpentanoic acid)”, for which the conjugation yield is on record as 18% yield.

In turn, “((S)-2-(4-(2, 5-dioxo-2, 5-dihydro-1H-pyrrol-1-yl)butanamido)-5-methoxy-5-oxopentanoyl)-L-alanyl-L-alanyl-L-alanine” registered a step yield (late stage modification step) of 70%. As for “((S)-2-amino-5-methoxy-5-oxopentanoyl)-L-alanyl-L-alanyl-L-alanine”, the step yield (late stage modification step) was found to be 100%. Still for that read-out and setting: in the case of “((S)-37-(4-(2, 5-dioxo-2, 5-dihydro-1H-pyrrol-1-yl)butanamido)-31-oxo-2, 5, 8, 11, 14, 17, 20, 23, 26, 29-decaoxa-32-azaoctatriacontan-38-oyl)-L-alanyl-L-alanyl-L-alanine” it was 63% yield; in that of “(R)-4-amino-5-(3-((6S, 9S, 12S, 15S)-6-(4-(2, 5-dioxo-2, 5-dihydro-1H-pyrrol-1-yl)butanamido)-9, 12, 15-trimethyl-3, 7, 10, 13-tetraoxo-2-oxa-8, 11, 14-triazahexadecan-16-amido)-4-hydroxyphenyl)pentanoic acid”, greater than 100%; in that of “(R)-4-amino-5-(3-((37S, 40S)-37-(4-(2, 5-dioxo-2, 5-dihydro-1H-pyrrol-1-yl)butanamido)-40-isopropyl-31, 38, 41-trioxo-2, 5, 8, 11, 14, 17, 20, 23, 26, 29-decaoxa-32, 39, 42-triazatetratetracontan-44-amido)-4-hydroxyphenyl)pentanoic acid”, greater than 100%. The same measure, in the same setting: in the case of “(R)-4-amino-5-(3-((37S, 40S, 43S)-37-(4-(2, 5-dioxo-2, 5-dihydro-1H-pyrrol-1-yl)butanamido)-40, 43-dimethyl-31, 38, 41-trioxo-2, 5, 8, 11, 14, 17, 20, 23, 26, 29-decaoxa-32, 39, 42-triazatetratetracontan-44-amido)-4-hydroxyphenyl)pentanoic acid” it was greater than 100%.
